The nature of this data set: glucoCEST (CEST MRI) of a D-glucose phantom in PBS buffer. The format is physicochemical. To be noted: PBS buffer pH=7.3, T=37° C., 9.4 Tesla, B1 3.6 μT, saturation time 3.5 seconds.

As to `O=C[C@H](O)[C@@H](O)[C@H](O)[C@H](O)CO` [D-glucose], the detection sensitivity result is recorded as “about 0.5 % of water signal per mM”.

The record behind these values is patent US10967076B2, “Use of non-labeled sugars and detection by MRI for assessing tissue perfusion and metabolism” (The Johns Hopkins University, priority 2010, dated 2021).
